## Primary screen of a compound library

From ChEMBL document CHEMBL3988442, “University of Dundee, Small-Polar-MMV Screening Library” (2021).

The filed quantity is “Percent Effect” (%).
The controls that fix the scale are not given in the record; negative values are as filed.
This is an unselected part of the compounds tested.
Two or more numbers in one place are separate tests of the same structure; such repeats can differ widely.

Mtb cholesterol medium: 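Whole-cell growth test on Mycobacterium tuberculosis, read after 4 days in a medium based on cholesterol and the lipid DPPC; the read-out is not stated. Tested at 50 µM. Direction is inferred from retests: higher values go with more growth inhibition. Of about 69,000 compounds tested this way, about 370 (0.54%) reached 50% or more in at least one test.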
Mtb glucose medium: 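Growth of Mycobacterium tuberculosis over 3 days (7H9 medium with glucose and tyloxapol); the read-out is not stated. Compounds at 50 µM. The record gives no direction; compounds that gave an IC50 in retests scored well above the rest, so higher reads as more growth inhibition. Of about 69,000 compounds tested this way, about 760 (1.1%) reached 50% or more in at least one test.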

* CN(CCOc1ccccc1F)S(=O)(=O)CC1CCOCC1 : Mtb cholesterol medium: -10.16%; Mtb glucose medium: 21.82%
* CC(C)c1nnc2n1CCN(C(=O)c1ccc(OCC3CC3)cc1)C2 : Mtb cholesterol medium: 8.695%; Mtb glucose medium: 23.66%
* COc1cccc(CNc2cnn(CC(F)F)c2)c1 : Mtb cholesterol medium: 3.156%; Mtb glucose medium: 29.36%
* CN(CCCNC(=O)CN1CCS(=O)(=O)CC1)c1ccccc1 : Mtb cholesterol medium: -6.42% & -0.03667%; Mtb glucose medium: -20.59%
* Cn1ccc(C(=O)N2CCN(Cc3ccccc3F)CC2)cc1=O : Mtb cholesterol medium: -19.4%; Mtb glucose medium: -39.45%
* CN(C)CCn1c(=O)oc2ccc(NC(=O)CC(C)(C)C)cc21 : Mtb cholesterol medium: 2.317%; Mtb glucose medium: 26.55%
* CCNC(=O)N1CCC(NC(=O)NCCc2cc(F)cc(F)c2)C1 (centres unmarked) : Mtb cholesterol medium: -3.944%; Mtb glucose medium: -19.05%
* OC(c1ccccc1)C1CCN(Cc2csc(-c3ncccn3)n2)CC1 (centres unmarked) : Mtb cholesterol medium: 0.917%; Mtb glucose medium: -15.97%
* CN1C(=O)CCC12CCCN(C(=O)c1ccoc1)C2 (centres unmarked) : Mtb cholesterol medium: 12.69%; Mtb glucose medium: -9.114% & 7.715%
* CS(=O)(=O)N1CCN(c2ccnc(N3CCCCC3)n2)CC1 : Mtb cholesterol medium: 27.41%; Mtb glucose medium: 44.04% & 31.15%
* CN(C)[C@@H]1CCN(c2ncc(F)cn2)[C@H]1Cc1ccccc1.O=C(O)C(F)(F)F.O=C(O)C(F)(F)F : Mtb cholesterol medium: 8.432%; Mtb glucose medium: -4.728% & -7.346%
* COc1c(C2CCCN2C(=O)c2ccc(Cl)o2)c(C)nn1C (centres unmarked) : Mtb cholesterol medium: -2.602% & -5.751%; Mtb glucose medium: 13.06%
* CCc1c(C)sc2c1c(N)nc(=O)n2CCCN(C)C : Mtb cholesterol medium: 10.36%; Mtb glucose medium: -1.786% & -1.175%
* O=C(O)C(F)(F)F.O=C(O)C(F)(F)F.[H][C@@]12CN(Cc3ccoc3)CCO[C@]1([H])CN(c1ccc(C)nn1)C2 : Mtb cholesterol medium: 5.058%; Mtb glucose medium: -15.95% & -9.507%
* Cc1nc(-c2ccc(CO)cc2)cc(C2CCNCC2)n1.Cl : Mtb cholesterol medium: -4.556%; Mtb glucose medium: 1.708%
* CC(C)CC(c1nc(-c2cnn(C)c2)no1)N1CCCCC1=O (centres unmarked) : Mtb cholesterol medium: -13.74%; Mtb glucose medium: -23.28%
* CC(C)c1ccc(CN2CCC(CNS(=O)(=O)C3CC3)C2)cc1 (centres unmarked) : Mtb cholesterol medium: -2.124%; Mtb glucose medium: 2.155%
* COCCN1CCC(CN(CC2CCCO2)C(=O)Cn2cccn2)CC1 (centres unmarked) : Mtb cholesterol medium: 17.86%; Mtb glucose medium: 6.272%
* CCOC(=O)c1n[nH]cc1-c1cncn1CCCn1nc(C)cc1C.Cl : Mtb cholesterol medium: 3.763%; Mtb glucose medium: 12.48%
* CCc1ocnc1C(=O)N1CCCC1c1noc(C)n1 (centres unmarked) : Mtb cholesterol medium: 14.61%; Mtb glucose medium: -9.423%
* COc1ccc([C@@H]2CN(Cc3cccnc3N)C[C@H]2N(C)C)cc1 : Mtb cholesterol medium: -6.626%; Mtb glucose medium: 1.164% & 3.672%
* OCCN(Cc1ccccc1)Cc1nc(-c2ccc3c(c2)OCO3)no1 : Mtb cholesterol medium: -3.531%; Mtb glucose medium: 7.536%
* Cc1c(NC(=O)CN(C)S(C)(=O)=O)cccc1OC1CCCC1 : Mtb cholesterol medium: -14.7%; Mtb glucose medium: -7.634%
* CCCOC1CCCN(C(=O)Cn2cccc(C(F)(F)F)c2=O)C1 (centres unmarked) : Mtb cholesterol medium: -3.869% & -2.714%; Mtb glucose medium: -1.224% & -9.06%
* NC(=O)C1CN(C(=O)Nc2ccccc2Oc2ccccc2Cl)CCO1 (centres unmarked) : Mtb cholesterol medium: -0.0774%; Mtb glucose medium: 1.822% & 20.18%
* CNc1nc(C)cc(N2CCC(C(=O)O)(n3ccc(C(C)C)n3)CC2)n1 : Mtb cholesterol medium: -19.19%; Mtb glucose medium: 3.878%
* c1ccc(Oc2ccc(CNCC3CNc4ccnn4C3)cn2)cc1 (centres unmarked) : Mtb cholesterol medium: -14.13%; Mtb glucose medium: 24.16%
* CNC(=O)c1cn[nH]c1C1(C)CCCN(Cc2ccccn2)C1 (centres unmarked) : Mtb cholesterol medium: -7.463%; Mtb glucose medium: -6.23%

2 of the entries, repeated:

- CCOC(=O)c1n[nH]cc1-c1cncn1CCCn1nc(C)cc1C.Cl : Mtb cholesterol medium: 3.763%; Mtb glucose medium: 12.48%
- CC(C)CC(c1nc(-c2cnn(C)c2)no1)N1CCCCC1=O (centres unmarked) : Mtb cholesterol medium: -13.74%; Mtb glucose medium: -23.28%